# Results from paper PMC12221994.
# Sequences of proteins named here, by UniProt entry; tags and fusion partners are left off. A change or cut given only in a name is not applied to a line headed by its entry.
# UniProt Q15554: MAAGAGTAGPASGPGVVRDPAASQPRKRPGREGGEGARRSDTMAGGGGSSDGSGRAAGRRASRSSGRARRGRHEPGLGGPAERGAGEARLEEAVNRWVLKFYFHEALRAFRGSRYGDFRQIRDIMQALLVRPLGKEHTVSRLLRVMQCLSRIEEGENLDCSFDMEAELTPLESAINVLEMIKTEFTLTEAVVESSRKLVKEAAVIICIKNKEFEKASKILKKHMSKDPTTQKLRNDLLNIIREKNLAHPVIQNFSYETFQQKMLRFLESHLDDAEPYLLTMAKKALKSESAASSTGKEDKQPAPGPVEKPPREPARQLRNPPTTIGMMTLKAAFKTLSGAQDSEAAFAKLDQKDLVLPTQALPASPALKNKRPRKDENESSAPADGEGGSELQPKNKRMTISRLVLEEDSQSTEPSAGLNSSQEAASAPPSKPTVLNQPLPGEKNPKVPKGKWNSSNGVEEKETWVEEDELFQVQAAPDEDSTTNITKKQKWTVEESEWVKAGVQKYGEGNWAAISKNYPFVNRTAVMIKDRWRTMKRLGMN
# Where two headings read alike, the source gives them in different places. The exact form of at least one protein or probe is not confirmed. For part of these data: Negatives hold for the conditions tested. For part of these data: At least one verdict was read from the data and is not stated in words by the source.
# Experiments:
# TRF2 (human) = TRF2 (human) (UniProt Q15554); experiment: EMSA; settings: 2, 15 or 40 nM TRF2, 1 nM DNA; cryo-EM: 40 mM HEPES pH 7.6, 100 mM NaCl, 3 mM MgCl2, 4 C; recombinant protein; protein details: dual strep; label: 32P 5' end (telomeric end)
# [1] = tested on: KU70/80 + DNA-PKcs + RAP1 + TRF2(deltaMdeltaB); experiment: DNase I footprinting; settings: read-out: 10-bp footprint; Footprinting: 25 mM HEPES pH 7.6, 80 mM KCl, 1.5 mM CaCl2, 1.5 mM MgCl2, 5% glycerol, 50 ug/ml BSA, 2 mM DTT, ice then 37 C (EMSA same buffer, 37 C); recombinant protein; protein details: FLAG (KU70 N-terminal),dual strep,dual strep; label: 32P 5' end (telomeric end)
# [2] = tested on: KU70/80 + DNA-PKcs + RAP1 + TRF2(deltaBasic); experiment: DNase I footprinting; settings: read-out: 10-bp footprint, basic domain not required; Footprinting: 25 mM HEPES pH 7.6, 80 mM KCl, 1.5 mM CaCl2, 1.5 mM MgCl2, 5% glycerol, 50 ug/ml BSA, 2 mM DTT, ice then 37 C (EMSA same buffer, 37 C); recombinant protein; protein details: FLAG (KU70 N-terminal),dual strep,dual strep; label: 32P 5' end (telomeric end)
# [3] = tested on: KU70/80 + DNA-PKcs + TRF2 + RAP1(deltaBRCT); experiment: DNase I footprinting; settings: read-out: 10-bp footprint; Footprinting: 25 mM HEPES pH 7.6, 80 mM KCl, 1.5 mM CaCl2, 1.5 mM MgCl2, 5% glycerol, 50 ug/ml BSA, 2 mM DTT, ice then 37 C (EMSA same buffer, 37 C); recombinant protein; protein details: FLAG (KU70 N-terminal),dual strep,dual strep; label: 32P 5' end (telomeric end)
# [4] = tested on: KU70/80 + DNA-PKcs + RAP1 + TRF2 RBM mutant (L330R); experiment: DNase I footprinting; settings: read-out: 10-bp footprint, RBM required; Footprinting: 25 mM HEPES pH 7.6, 80 mM KCl, 1.5 mM CaCl2, 1.5 mM MgCl2, 5% glycerol, 50 ug/ml BSA, 2 mM DTT, ice then 37 C (EMSA same buffer, 37 C); recombinant protein; protein details: FLAG (KU70 N-terminal),dual strep,dual strep; label: 32P 5' end (telomeric end)
# [5] = tested on: KU70/80 + DNA-PKcs + TRF2; experiment: DNase I footprinting; settings: read-out: 10-bp footprint absent without RAP1 (DNA-PK still bound); Footprinting: 25 mM HEPES pH 7.6, 80 mM KCl, 1.5 mM CaCl2, 1.5 mM MgCl2, 5% glycerol, 50 ug/ml BSA, 2 mM DTT, ice then 37 C (EMSA same buffer, 37 C); recombinant protein; protein details: FLAG (KU70 N-terminal),dual strep; label: 32P 5' end (telomeric end)
# [6] = tested on: KU70/80 + DNA-PKcs + shelterin (TRF1, TRF2, RAP1, TIN2, POT1, TPP1); experiment: DNase I footprinting; settings: 10-bp footprint next to DNA-PK; Footprinting: 25 mM HEPES pH 7.6, 80 mM KCl, 1.5 mM CaCl2, 1.5 mM MgCl2, 5% glycerol, 50 ug/ml BSA, 2 mM DTT, ice then 37 C (EMSA same buffer, 37 C); recombinant protein; protein details: FLAG (KU70 N-terminal); label: 32P 5' end (telomeric end)
# KU70/80 + DNA-PKcs = experiment: DNase I footprinting; settings: 32 bp protected from the end, 50 nM KU, 30 nM DNA-PKcs, 2 nM DNA; Footprinting: 25 mM HEPES pH 7.6, 80 mM KCl, 1.5 mM CaCl2, 1.5 mM MgCl2, 5% glycerol, 50 ug/ml BSA, 2 mM DTT, ice then 37 C (EMSA same buffer, 37 C); recombinant protein; protein details: FLAG (KU70 N-terminal); label: 32P 5' end (telomeric end)
# [7] = tested on: KU70/80 + DNA-PKcs + TRF2 + RAP1; experiment: DNase I footprinting; settings: Footprinting: 25 mM HEPES pH 7.6, 80 mM KCl, 1.5 mM CaCl2, 1.5 mM MgCl2, 5% glycerol, 50 ug/ml BSA, 2 mM DTT, ice then 37 C (EMSA same buffer, 37 C), recombinant protein, protein details: FLAG (KU70 N-terminal),dual strep,dual strep
# [8] = tested on: KU70/80 + DNA-PKcs + TRF2 + RAP1(R133E); experiment: DNase I footprinting; settings: read-out: 10-bp footprint blocked; Footprinting: 25 mM HEPES pH 7.6, 80 mM KCl, 1.5 mM CaCl2, 1.5 mM MgCl2, 5% glycerol, 50 ug/ml BSA, 2 mM DTT, ice then 37 C (EMSA same buffer, 37 C); recombinant protein; protein details: FLAG (KU70 N-terminal),dual strep,dual strep; label: 32P 5' end (telomeric end)
# [9] = tested on: KU70/80 + DNA-PKcs + RAP1(deltaRCT) + TRF2; experiment: DNase I footprinting; settings: read-out: 10-bp footprint, RCT required; Footprinting: 25 mM HEPES pH 7.6, 80 mM KCl, 1.5 mM CaCl2, 1.5 mM MgCl2, 5% glycerol, 50 ug/ml BSA, 2 mM DTT, ice then 37 C (EMSA same buffer, 37 C); recombinant protein; protein details: FLAG (KU70 N-terminal),dual strep,dual strep; label: 32P 5' end (telomeric end)
# [10] = tested on: KU70/80 + DNA-PKcs + Teb1 DBD; experiment: DNase I footprinting; settings: read-out: 10-bp footprint, Teb1 alone gives none; Footprinting: 25 mM HEPES pH 7.6, 80 mM KCl, 1.5 mM CaCl2, 1.5 mM MgCl2, 5% glycerol, 50 ug/ml BSA, 2 mM DTT, ice then 37 C (EMSA same buffer, 37 C); recombinant protein; protein details: FLAG (KU70 N-terminal); label: 32P 5' end (telomeric end)
# [11] = tested on: KU70/80 + DNA-PKcs + RAP1; experiment: DNase I footprinting; settings: read-out: 10-bp footprint absent without TRF2; Footprinting: 25 mM HEPES pH 7.6, 80 mM KCl, 1.5 mM CaCl2, 1.5 mM MgCl2, 5% glycerol, 50 ug/ml BSA, 2 mM DTT, ice then 37 C (EMSA same buffer, 37 C); recombinant protein; protein details: FLAG (KU70 N-terminal),dual strep; label: 32P 5' end (telomeric end)
# [12] = tested on: KU70/80 + DNA-PKcs + RAP1 + TRF2(deltaMyb); experiment: DNase I footprinting; settings: read-out: 10-bp footprint, TRF2 Myb required; Footprinting: 25 mM HEPES pH 7.6, 80 mM KCl, 1.5 mM CaCl2, 1.5 mM MgCl2, 5% glycerol, 50 ug/ml BSA, 2 mM DTT, ice then 37 C (EMSA same buffer, 37 C); recombinant protein; protein details: FLAG (KU70 N-terminal),dual strep,dual strep; label: 32P 5' end (telomeric end)
Sequence,binding result (TRF2 (human)),binding result [1],binding result [2],binding result [3],binding result [4],binding result [5],binding result [6],binding result (KU70/80 + DNA-PKcs),"binding result ([7]; 10-bp footprint next to DNA-PK, 5 nM TRF2-RAP1, also at 250 nM each, label: 32P 5' end (telomeric end))",binding result [8],binding result [9],binding result [10],binding result [11],binding result [12],"binding result ([7]; read-out: 10-bp footprint absent on non-telomeric DNA, label: 32P 5' end)"
CGGTACCCGGGGATCCTCTAGAGTCGACGAAGACTTAGGGTTAGGGTTAGGGTTAGGGTTAGGGTTAGGGTTAGGGTTAGGGTTAGGGTTAGGGTTAGGGTTAGGGTTAGGGTTAGGGTTAGGGTTAGGGTTAGGGTTAGGGTTAGGGTTAGGGTTAGGGTTAGGGTTAGGGTTAGGGTTAGGGTTAGGGTTAGGGTTAGGGTTAGGGTTAGGGTTAGGGTTAGGGTTAGGGTTAGGGTTAGGGTTAGGGTTAGGGTTAGGGTTAGGGTTAGGGTTAGGGTTAGGGTTAGGGTTAGGGTTAGGGTTAGGGTTAGGGTTAGGGTTAGGGTTAGGGTTAGGGTTAGGGTTAGGGTTAGGGTTAGGGTTAGGGTTAGGGTTAGGGTTAGGG (double strand) [PE1 telomeric template],binds,no binding,binds,no binding,no binding,no binding,binds,binds,binds,no binding,no binding,no binding,no binding,no binding,
CGGTACCCGGGGATCCTCTAGAGTCGACGAAGACCACCAGCTAGTACAACCACATACTTTATGGAGAAATTTCAAAACGCAAAGAAGAACGAAGATAAACAAATTGCCAAGTTTGAAAGCATGATGAATGCAAGAGTACATACGTTCAGTACCGATGAGAAGAAATATGTGCCGATAATCACAAACGAATTAGAAAGCTTTTCAAATCTTTGGGTTAAAAAGAGGTACATACCTGAAGATGACTTAAAACGGGCTTTGCATGAGATCAAAATCCTTCGGTTGGGCAAACTTTTTGCTAAAATTCGCCCACCTAAATTTCAAGAGCCTGAATACGCCAACTGGGCCACCGTAGGCCTCATTAGCCACAAATCGGACATCAAATTTAC (double strand) [PE2 non-telomeric template],,,,,,,,,,,,,,,no binding
